Test results reported in patent US8470783B2, “Medicinal use of histone deacetylase inhibitor and method of evaluating antitumor effect thereof” (Astellas Pharma Inc., priority 2001, dated 2013).

Tested on: human tumor cells (PC-3, U937, ACHN)
Assay: Gene chip analysis of in vitro gene expression in human tumor cells (Example 6)
Assay type: cell-based
Settings: of 7070 genes detectable using GeneChip

Question: FK228 was tested. Which “number of genes that commonly showed decreased expression in the three human tumor cells” value did it give?
Answer: 100 genes

Question: What about the “number of genes that commonly showed increased expression in the three human tumor cells” value of the same substance?
Answer: 105 genes
